Experimental data: paper doi:10.1101/2020.11.16.384271
Results are given in words; binding and its absence hold for the method and conditions named. Binding seen in cells or lysates may run through a third protein. Some results given as binding are weak or reduced against the parent protein; the word gives no strength.

Chains of the proteins cited; added tags and fusions are not shown. Residues count along the entry.
UniProt P52948, residues 1-880: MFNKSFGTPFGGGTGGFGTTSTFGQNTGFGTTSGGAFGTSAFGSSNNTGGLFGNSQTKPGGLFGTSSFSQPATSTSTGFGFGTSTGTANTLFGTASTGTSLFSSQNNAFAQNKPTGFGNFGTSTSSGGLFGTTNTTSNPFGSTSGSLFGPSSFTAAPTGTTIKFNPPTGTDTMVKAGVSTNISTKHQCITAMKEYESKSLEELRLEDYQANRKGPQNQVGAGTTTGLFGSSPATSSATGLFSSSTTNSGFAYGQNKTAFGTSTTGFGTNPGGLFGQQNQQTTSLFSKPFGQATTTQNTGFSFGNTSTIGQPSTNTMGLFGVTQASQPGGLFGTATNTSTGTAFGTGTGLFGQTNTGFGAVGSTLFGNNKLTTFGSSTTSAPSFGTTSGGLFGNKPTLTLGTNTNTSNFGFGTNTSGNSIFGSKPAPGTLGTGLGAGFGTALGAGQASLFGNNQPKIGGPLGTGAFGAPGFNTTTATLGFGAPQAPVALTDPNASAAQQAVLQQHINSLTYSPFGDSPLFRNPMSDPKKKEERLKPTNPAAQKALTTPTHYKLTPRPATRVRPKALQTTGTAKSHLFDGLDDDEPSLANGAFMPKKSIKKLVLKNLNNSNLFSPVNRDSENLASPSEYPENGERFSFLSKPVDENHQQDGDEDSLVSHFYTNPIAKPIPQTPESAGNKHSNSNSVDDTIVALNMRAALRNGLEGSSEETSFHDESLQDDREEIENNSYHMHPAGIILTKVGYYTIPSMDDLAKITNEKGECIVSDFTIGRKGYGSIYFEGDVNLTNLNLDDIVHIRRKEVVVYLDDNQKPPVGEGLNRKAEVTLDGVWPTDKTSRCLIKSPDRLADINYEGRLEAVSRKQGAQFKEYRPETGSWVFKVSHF

Target: endogenous NUP98 (Nucleoporin 98) (human (endogenous in HL-60)) (UniProt P52948)
Assay: co-IP

binding: binds
B1: mRNA export factor RAE1 (protein, UniProt P78406 1-368)
chain: MSLFGTTSGFGTSGTSMFGSATTDNHNPMKDIEVTSSPDDSIGCLSFSPPTLPGNFLIAGSWANDVRCWEVQDSGQTIPKAQQMHTGPVLDVCWSDDGSKVFTASCDKTAKMWDLSSNQAIQIAQHDAPVKTIHWIKAPNYSCVMTGSWDKTLKFWDTRSSNPMMVLQLPERCYCADVIYPMAVVATAERGLIVYQLENQPSEFRRIESPLKHQHRCVAIFKDKQNKPTGFALGSIEGRVAIHYINPPNPAKDNFTFKCHRSNGTNTSAPQDIYAVNGIAFHPVHGTLATVGSDGRFSFWDKDARTKLKTSEQLDQPISACCFNHNGNIFAYASSYDWSKGHEFYNPQKKNYIFLRNAAEELKPRNKK
